Results are given in words; binding and its absence hold for the method and conditions named. In cells and extracts the contact can be indirect. These calls come from enrichment with a bait or labelling near it, and not all partners need be listed. Sequences can lack the tags named with a protein.
Legend:
[1] = target: SLC3A2 endogenous to 293T cells (human) (UniProt P08195); assay: co-immunoprecipitation, protein mass spectrometry identification
[2] = target: TFRC (transferrin receptor protein 1) endogenous to 293T cells (human) (UniProt P02786); assay: as above
[3] = target: SLC3A2 endogenous to 293T cells (human) (UniProt P08195); assay: co-immunoprecipitation with anti-His antibody from transfected 293T lysate, mass spectrometry identification
[4] = target: TFRC (transferrin receptor protein 1) endogenous to 293T cells (human) (UniProt P02786); assay: as above

The chains behind the UniProt entries cited, without tags or fusion partners. Residues count along the entry.
UniProt P08195, residues 103-630: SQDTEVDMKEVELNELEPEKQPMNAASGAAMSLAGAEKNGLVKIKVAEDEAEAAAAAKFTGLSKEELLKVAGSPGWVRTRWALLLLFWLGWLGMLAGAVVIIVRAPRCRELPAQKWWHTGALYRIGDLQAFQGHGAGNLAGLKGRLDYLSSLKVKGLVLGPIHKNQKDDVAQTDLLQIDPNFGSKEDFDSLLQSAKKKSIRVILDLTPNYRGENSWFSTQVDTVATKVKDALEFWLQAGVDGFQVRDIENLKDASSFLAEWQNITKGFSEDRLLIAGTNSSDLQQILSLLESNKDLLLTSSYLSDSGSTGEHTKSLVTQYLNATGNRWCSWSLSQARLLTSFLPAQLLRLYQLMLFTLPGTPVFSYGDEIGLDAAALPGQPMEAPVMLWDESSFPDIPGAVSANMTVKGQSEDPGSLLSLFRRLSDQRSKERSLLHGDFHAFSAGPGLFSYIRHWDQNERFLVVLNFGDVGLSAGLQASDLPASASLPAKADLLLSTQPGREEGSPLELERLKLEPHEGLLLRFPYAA

binding [1]: binds | binding [2]: binds | binding [3]: binds | binding [4]: binds
B1: hCf48-his (human Cf48 with His tag, expressed from the hCf48-his-IRES-GFP plasmid in 293T cells) (peptide, not shown: small tags and cut ends)
peptide: EPAGSAVPAQSRPCVDCHAFEFMQRALQDLRKTACSLDARTETLLLQAERRALCACWPAGH

Reference: US20260243780A1
